# Some of the results follow. The data scatter; read single values as rough.
# Sequences of proteins named here, by UniProt entry; tags and fusion partners are left off. A change or cut given only in a name is not applied to a line headed by its entry.
# UniProt Q9BVA0: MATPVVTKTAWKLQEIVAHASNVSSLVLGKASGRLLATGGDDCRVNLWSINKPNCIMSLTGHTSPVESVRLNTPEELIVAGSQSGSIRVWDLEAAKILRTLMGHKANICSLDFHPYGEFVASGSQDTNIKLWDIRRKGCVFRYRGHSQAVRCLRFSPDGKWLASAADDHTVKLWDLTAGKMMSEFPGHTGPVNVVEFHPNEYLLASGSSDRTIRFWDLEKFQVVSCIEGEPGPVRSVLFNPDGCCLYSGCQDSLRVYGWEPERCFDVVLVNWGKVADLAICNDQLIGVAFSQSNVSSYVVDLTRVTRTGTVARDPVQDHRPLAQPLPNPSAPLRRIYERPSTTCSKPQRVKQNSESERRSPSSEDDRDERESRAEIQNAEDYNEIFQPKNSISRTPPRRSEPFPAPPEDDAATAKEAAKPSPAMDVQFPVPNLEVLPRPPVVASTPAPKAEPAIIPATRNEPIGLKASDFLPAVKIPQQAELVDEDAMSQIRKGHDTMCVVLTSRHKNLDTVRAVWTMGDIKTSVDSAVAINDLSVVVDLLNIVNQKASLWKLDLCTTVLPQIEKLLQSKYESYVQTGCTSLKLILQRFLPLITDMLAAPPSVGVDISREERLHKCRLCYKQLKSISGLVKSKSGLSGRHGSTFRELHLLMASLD
# UniProt O95239: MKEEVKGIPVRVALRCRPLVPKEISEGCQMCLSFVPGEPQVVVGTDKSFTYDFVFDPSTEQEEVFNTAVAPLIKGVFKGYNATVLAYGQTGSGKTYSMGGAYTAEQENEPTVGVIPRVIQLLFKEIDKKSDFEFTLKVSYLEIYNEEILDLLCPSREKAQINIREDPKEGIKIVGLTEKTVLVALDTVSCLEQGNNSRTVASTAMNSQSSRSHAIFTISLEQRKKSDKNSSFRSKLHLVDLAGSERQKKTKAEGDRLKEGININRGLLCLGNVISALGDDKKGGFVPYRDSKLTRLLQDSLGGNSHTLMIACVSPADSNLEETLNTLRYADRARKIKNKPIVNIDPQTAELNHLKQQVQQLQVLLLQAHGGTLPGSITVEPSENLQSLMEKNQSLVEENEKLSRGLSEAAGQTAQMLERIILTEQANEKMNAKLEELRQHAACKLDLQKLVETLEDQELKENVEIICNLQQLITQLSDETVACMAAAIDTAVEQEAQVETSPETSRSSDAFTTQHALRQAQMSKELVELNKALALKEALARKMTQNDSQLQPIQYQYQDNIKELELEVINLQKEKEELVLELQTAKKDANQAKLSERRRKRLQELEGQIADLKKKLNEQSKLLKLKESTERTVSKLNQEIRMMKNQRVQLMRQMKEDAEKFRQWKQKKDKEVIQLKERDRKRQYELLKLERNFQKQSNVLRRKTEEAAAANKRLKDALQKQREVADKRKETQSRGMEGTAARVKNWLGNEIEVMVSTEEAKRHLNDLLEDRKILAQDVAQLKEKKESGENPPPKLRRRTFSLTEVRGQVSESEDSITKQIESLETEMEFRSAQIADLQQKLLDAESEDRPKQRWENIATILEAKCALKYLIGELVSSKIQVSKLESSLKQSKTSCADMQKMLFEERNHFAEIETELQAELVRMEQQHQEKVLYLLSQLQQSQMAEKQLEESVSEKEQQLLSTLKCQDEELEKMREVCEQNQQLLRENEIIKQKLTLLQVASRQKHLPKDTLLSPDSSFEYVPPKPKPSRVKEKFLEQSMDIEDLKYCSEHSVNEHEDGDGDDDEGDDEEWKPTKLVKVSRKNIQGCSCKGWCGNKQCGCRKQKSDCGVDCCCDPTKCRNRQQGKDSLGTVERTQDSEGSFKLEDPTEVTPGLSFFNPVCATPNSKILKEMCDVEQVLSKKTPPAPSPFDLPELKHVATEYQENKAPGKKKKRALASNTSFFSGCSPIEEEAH
# UniProt Q15652: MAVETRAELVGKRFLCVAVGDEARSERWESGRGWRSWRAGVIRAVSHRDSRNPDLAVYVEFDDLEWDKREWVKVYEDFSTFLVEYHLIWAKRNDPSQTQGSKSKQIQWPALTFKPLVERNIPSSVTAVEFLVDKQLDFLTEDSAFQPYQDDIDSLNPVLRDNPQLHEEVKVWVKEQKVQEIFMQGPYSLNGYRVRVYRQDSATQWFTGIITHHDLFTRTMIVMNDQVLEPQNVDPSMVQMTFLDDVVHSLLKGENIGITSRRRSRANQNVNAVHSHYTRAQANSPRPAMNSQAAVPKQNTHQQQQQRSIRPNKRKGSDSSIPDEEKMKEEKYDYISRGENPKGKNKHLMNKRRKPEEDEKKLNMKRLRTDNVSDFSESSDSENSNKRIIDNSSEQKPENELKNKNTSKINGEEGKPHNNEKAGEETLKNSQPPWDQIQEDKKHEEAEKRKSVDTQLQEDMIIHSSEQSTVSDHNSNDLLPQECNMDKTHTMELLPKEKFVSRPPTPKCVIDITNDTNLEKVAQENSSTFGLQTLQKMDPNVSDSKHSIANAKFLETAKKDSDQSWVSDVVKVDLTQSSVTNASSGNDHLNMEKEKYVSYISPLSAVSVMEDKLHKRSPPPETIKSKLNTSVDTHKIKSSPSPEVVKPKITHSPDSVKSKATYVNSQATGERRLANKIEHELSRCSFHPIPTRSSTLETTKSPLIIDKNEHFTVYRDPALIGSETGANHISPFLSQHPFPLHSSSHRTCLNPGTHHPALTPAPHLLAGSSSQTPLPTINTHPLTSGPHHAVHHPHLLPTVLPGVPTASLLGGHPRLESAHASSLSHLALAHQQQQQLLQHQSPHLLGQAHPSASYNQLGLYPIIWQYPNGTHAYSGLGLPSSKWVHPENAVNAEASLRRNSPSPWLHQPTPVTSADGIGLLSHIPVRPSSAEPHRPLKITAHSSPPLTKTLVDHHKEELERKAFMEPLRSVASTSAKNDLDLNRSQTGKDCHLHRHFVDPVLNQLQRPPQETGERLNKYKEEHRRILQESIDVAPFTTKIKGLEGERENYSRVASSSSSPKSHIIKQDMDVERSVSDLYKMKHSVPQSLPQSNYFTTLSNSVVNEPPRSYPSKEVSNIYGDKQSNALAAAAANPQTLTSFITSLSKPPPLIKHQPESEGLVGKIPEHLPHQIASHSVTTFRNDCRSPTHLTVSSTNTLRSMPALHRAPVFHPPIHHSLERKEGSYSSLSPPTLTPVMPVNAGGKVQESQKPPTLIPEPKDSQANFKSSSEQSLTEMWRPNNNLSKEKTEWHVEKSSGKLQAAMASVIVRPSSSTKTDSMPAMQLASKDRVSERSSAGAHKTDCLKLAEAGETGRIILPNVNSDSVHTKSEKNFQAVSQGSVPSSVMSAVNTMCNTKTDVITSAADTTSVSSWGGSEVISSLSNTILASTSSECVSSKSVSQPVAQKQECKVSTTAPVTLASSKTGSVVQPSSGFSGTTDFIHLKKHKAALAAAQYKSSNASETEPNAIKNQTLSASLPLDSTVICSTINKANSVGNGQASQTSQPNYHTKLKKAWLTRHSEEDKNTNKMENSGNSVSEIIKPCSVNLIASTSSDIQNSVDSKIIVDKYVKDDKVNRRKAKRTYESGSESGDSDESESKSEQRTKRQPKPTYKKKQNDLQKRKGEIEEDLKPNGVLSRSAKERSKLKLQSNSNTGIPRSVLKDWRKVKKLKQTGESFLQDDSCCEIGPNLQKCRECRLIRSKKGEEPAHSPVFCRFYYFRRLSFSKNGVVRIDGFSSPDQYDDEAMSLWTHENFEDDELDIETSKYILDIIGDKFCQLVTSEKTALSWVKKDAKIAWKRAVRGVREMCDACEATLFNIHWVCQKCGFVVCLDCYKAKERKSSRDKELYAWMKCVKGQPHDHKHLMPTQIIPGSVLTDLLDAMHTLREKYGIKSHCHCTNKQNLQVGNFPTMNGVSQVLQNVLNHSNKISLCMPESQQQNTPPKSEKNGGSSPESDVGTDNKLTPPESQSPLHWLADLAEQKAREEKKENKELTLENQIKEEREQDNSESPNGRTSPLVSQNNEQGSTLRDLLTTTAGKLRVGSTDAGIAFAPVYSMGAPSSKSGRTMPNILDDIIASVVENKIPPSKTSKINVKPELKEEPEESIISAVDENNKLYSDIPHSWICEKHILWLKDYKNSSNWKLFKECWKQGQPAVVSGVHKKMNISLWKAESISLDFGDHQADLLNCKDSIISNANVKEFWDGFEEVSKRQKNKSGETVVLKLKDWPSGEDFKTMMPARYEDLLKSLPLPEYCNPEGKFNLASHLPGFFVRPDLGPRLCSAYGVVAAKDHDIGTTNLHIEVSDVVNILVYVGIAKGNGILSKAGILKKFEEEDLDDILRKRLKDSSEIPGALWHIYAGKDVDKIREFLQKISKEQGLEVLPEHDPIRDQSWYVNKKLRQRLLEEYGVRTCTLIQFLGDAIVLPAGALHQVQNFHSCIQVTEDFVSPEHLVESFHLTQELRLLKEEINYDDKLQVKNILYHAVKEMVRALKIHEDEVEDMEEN
# UniProt O60333: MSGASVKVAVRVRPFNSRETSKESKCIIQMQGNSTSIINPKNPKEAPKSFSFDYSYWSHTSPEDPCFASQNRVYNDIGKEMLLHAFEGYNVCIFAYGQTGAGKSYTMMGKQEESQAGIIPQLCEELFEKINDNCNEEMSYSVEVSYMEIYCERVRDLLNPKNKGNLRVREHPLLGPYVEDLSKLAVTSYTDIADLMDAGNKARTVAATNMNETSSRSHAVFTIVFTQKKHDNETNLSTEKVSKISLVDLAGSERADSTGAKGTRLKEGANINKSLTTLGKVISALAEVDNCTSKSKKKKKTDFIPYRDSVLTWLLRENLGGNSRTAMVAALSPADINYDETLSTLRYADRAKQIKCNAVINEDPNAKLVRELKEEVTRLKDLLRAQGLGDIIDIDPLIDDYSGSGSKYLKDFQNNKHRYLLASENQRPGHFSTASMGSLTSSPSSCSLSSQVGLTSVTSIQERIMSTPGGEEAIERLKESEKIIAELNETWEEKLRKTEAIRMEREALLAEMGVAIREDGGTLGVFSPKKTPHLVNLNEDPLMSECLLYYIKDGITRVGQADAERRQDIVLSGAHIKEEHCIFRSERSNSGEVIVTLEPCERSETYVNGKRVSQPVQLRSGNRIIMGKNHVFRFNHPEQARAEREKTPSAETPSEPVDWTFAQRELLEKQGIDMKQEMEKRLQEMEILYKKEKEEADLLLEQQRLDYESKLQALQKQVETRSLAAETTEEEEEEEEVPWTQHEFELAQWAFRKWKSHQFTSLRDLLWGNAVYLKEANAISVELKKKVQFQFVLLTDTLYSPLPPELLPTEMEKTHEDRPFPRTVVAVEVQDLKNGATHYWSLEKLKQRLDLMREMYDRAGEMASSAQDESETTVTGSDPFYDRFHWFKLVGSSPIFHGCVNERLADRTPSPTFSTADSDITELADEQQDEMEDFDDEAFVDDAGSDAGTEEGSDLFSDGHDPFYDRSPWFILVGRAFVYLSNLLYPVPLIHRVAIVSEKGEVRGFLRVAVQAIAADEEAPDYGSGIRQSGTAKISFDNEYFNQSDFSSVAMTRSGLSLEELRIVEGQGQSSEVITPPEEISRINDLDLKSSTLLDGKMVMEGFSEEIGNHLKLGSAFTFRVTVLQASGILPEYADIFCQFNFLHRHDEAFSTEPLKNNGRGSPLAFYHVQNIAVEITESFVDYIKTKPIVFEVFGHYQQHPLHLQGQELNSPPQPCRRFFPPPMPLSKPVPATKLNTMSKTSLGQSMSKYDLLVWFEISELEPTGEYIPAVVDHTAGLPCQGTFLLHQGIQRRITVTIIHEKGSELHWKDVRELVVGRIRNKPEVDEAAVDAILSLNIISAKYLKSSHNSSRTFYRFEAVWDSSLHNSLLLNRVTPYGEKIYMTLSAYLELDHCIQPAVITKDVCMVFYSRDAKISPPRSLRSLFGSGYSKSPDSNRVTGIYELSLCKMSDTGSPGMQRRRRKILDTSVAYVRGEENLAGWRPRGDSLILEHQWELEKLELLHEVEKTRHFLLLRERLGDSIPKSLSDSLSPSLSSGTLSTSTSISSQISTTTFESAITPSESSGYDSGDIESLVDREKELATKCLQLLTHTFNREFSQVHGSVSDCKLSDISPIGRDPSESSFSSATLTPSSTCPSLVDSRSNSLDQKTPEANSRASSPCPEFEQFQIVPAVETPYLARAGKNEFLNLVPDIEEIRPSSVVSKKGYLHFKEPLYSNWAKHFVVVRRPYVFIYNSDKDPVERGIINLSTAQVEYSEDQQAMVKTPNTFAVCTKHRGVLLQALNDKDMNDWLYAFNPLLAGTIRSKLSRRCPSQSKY
# Compound: ClCC(=O)N[C@H]1CCCc2ccccc12
# Assay: log2 mean competition ratio of IA-DTB cysteine labelling (DMSO/compound) (log2 ratio); higher = stronger cysteine engagement by compound
# Settings: 50 µM; treatment time: 4 h; cell line lysate: HEK293T
# Description: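 IA-DTB competitive cysteine chemoproteomics in HEK293T RIPA lysate. Lysates were treated with compound 29 or 30 at 50 or 200 µM for 4 h, then IA-DTB (500 µM, 1 h), trypsin-digested, NeutrAvidin-enriched and analysed by diaPASEF. Competition ratio = intensity DMSO / intensity compound (n=4 treated, n=64 DMSO); binding: mean log2 CR ≥ 1 and p ≤ 0.05 plus QC filters. Target is the cysteine site.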
row,Target,log2 mean competition ratio
1,KAT7 C602 (UniProt O95251),0.19
2,KATNB1 C579 (UniProt Q9BVA0),0.0222
3,KIF22 C65 (UniProt Q14807),-0.0931
4,KDM3A C349 (UniProt Q9Y4C1),-0.177
5,KIF24 C1154,-0.0348
6,KIF4A C895 (UniProt O95239),-0.171
7,KIAA1217 C1693 (UniProt Q5T5P2),0.203
8,KIF16B C242 (UniProt Q96L93),-0.196
9,KAT2A C695 (UniProt Q92830),0.566
10,KIF4A C190 (UniProt O95239),-0.251
11,JARID2 C1210 (UniProt Q92833),-0.167
12,KIAA1522 C804 (UniProt Q9P206),-0.174
13,JCAD C785,-0.0329
14,JMJD1C C508 (UniProt Q15652),-0.457
15,KDM1A C360 (UniProt O60341),-0.166
16,KDM1A C491 (UniProt O60341),0.121
17,ITPRID2 C305 (UniProt P28290),0.0527
18,KDM5A C1409 (UniProt P29375),-0.0308
19,KIF1B C1607 (UniProt O60333),-0.373
20,ITPR1 C653 (UniProt Q14643),-0.0739

# Same assay, conditions: 200 µM; treatment time: 4 h; cell line lysate: HEK293T
row,Target,log2 mean competition ratio
1,KAT7 C602 (UniProt O95251),0.115
2,KATNB1 C579 (UniProt Q9BVA0),-0.244
3,KIF22 C65 (UniProt Q14807),0.268
4,KDM3A C349 (UniProt Q9Y4C1),0.362
5,KIF24 C1154,0.221
6,KIF4A C895 (UniProt O95239),0.0111
7,KIAA1217 C1693 (UniProt Q5T5P2),-0.0527
8,KIF16B C242 (UniProt Q96L93),-0.0644
9,KAT2A C695 (UniProt Q92830),-0.0296
10,KIF4A C190 (UniProt O95239),0.2
11,JARID2 C1210 (UniProt Q92833),0.0139
12,KIAA1522 C804 (UniProt Q9P206),0.391
13,JCAD C785,-0.0787
14,JMJD1C C508 (UniProt Q15652),-0.163
15,KDM1A C360 (UniProt O60341),-0.309
16,KDM1A C491 (UniProt O60341),0.0431
17,ITPRID2 C305 (UniProt P28290),0.0851
18,KDM5A C1409 (UniProt P29375),0.39
19,KIF1B C1607 (UniProt O60333),-0.633
20,ITPR1 C653 (UniProt Q14643),0.0345
